Test results published in publication PMC3782429.
Results are given in words; binding and its absence hold for the method and conditions named. Binding can be weak; no strength is given.

Target: KIF21B stalk-domain (aa 401-1100), bait construct (mouse)
Test: two-hybrid; DupLEX-A yeast two-hybrid system; KIF21B baits in pGilda, TRIM3 preys in pJG4-5; lacZ reporter, beta-galactosidase activity as average signal intensity of colonies (arbitrary units)

B1: full-length TRIM3 (aa 1-744), prey construct (protein, UniProt Q9R1R2 1-744)
chain: MAKREDSPGPEVQPMDKQFLVCSICLDRYRCPKVLPCLHTFCERCLQNYIPPQSLTLSCPVCRQTSILPEQGVSALQNNFFISSLMEAMQQAPEGAHDPEDPHPLSAVAGRPLSCPNHEGKTMEFYCEACETAMCGECRAGEHREHGTVLLRDVVEQHKAALQRQLEAVRGRLPQLSAAIALVGGISQQLQERKAEALAQISAAFEDLEQALQQRKQALVSDLESICGAKQKVLQTQLDTLRQGQEHIGSSCSFAEQALRLGSAPEVLLVRKHMRERLAALAAQAFPERPHENAQLELVLEVDGLRRSVLNLGALLTTSATAHETVATGEGLRQALVGQPASLTVTTKDKDGRLVRTGSAELCAEITGPDGVRLAVPVVDHKNGTYELVYTARTEGDLLLSVLLYGQPVRGSPFRVRALRPGDLPPSPDDVKRRVKSPGGPGSHVRQKAVRRPSSMYSTGGKRKDNPIEDELVFRVGSRGREKGEFTNLQGVSAASSGRIVVADSNNQCIQVFSNEGQFKFRFGVRGRSPGQLQRPTGVAVDTNGDIIVADYDNRWVSIFSPEGKFKTKIGAGRLMGPKGVAVDRNGHIIVVDNKSCCVFTFQPNGKLVGRFGGRGATDRHFAGPHFVAVNNKNEIVVTDFHNHSVKVYSADGEFLFKFGSHGEGNGQFNAPTGVAVDSNGNIIVADWGNSRIQVFDSSGSFLSYINTSAEPLYGPQGLALTSDGHVVVADAGNHCFKAYRYLQ
Question: For B1, which binding is on record?
Answer: Its binding is “binds”.

B2: TRIM3-RBCC (aa 1-290), prey construct (domain or fragment, UniProt Q9R1R2 1-290)
chain: MAKREDSPGPEVQPMDKQFLVCSICLDRYRCPKVLPCLHTFCERCLQNYIPPQSLTLSCPVCRQTSILPEQGVSALQNNFFISSLMEAMQQAPEGAHDPEDPHPLSAVAGRPLSCPNHEGKTMEFYCEACETAMCGECRAGEHREHGTVLLRDVVEQHKAALQRQLEAVRGRLPQLSAAIALVGGISQQLQERKAEALAQISAAFEDLEQALQQRKQALVSDLESICGAKQKVLQTQLDTLRQGQEHIGSSCSFAEQALRLGSAPEVLLVRKHMRERLAALAAQAFPERP
Question: How did the binding turn out when B2 was run?
Answer: The binding was “binds”.
